The values below come from paper PMC12297241.

For this test, the target named is T1, RIPK1-WT overexpressed in HEK293T cells (Flag-RIPK1-WT or Myc-RIPK1-WT) (human), Q13546.
T1 chain: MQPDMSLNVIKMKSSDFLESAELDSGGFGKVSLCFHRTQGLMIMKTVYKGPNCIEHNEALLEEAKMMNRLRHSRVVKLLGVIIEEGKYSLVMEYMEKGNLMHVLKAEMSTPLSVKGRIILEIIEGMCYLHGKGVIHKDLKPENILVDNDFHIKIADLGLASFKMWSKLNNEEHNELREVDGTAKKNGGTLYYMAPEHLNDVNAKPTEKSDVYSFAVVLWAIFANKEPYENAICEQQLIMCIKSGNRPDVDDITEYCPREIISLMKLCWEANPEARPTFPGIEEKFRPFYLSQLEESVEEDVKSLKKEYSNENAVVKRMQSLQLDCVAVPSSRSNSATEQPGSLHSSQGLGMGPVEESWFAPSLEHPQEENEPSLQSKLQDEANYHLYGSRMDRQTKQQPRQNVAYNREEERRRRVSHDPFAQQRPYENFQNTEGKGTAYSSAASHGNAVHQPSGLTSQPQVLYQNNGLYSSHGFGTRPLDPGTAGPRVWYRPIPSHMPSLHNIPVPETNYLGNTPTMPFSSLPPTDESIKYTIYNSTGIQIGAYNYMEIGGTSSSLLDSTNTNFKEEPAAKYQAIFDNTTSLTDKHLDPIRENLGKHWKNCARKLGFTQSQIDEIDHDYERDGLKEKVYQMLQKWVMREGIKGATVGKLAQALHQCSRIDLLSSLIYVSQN
Briefly: co-IP; HEK293T cells co-transfected for 24 h with Flag- and Myc-tagged expression vectors; lysates immunoprecipitated overnight with anti-Flag beads at 4 °C; immunoblot. Particulars: remark: other sources report otherwise. A general note: A western blot detects proteins with antibodies after separation by electrophoresis.

Results are given in words; binding and its absence hold for the method and conditions named. Binding seen in cells or lysates may run through a third protein. Some binding calls cover weakened binding; strength is not graded here. Tags and fused reporters may be left off the sequences shown.

B1: RIPK1-WT overexpressed in HEK293T cells (Flag-RIPK1-WT or Myc-RIPK1-WT), Q13546 1-671 (protein)
chain: T1 chain
For B1, the binding result is listed as “binds”.
